The values that follow come from paper PMC11927390.

Chains of the proteins cited; added tags and fusions are not shown. Residues count along the entry.
UniProt P26718, residues 73-216: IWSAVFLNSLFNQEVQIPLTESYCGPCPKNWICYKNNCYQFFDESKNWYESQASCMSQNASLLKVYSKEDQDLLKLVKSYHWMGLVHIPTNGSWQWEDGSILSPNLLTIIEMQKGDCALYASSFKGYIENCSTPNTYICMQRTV

No constants are given. Whether binding was seen depends on the method and setting. Some entries that bind do so weakly or less than the wild type.

In test [1] the target is Fc-tagged human NKG2D (human) (UniProt P26718). Kind of test: ELISA; blocking assay: plates coated with Fc-tagged NKG2D; biotinylated ULBP5 (1.55 nmol/L) or ULBP6-02 (0.15 nmol/L) at its EC80 precomplexed with 23ME-01473 and transferred to the plates; IC50 from dose-response fit; both purified.
The target is the same in test [2]. Kind of test: SPR; Biacore 8K or 8K+, 37°C; Fc-tagged human NKG2D (0.5 μg/mL) captured on Series S Sensor Protein A chip to about 25 RU; threefold serial dilutions of NKG2DLs injected at 30 μL/minute in HBS-P (0.01 mol/L HEPES pH 7.4, 0.15 mol/L NaCl, 0.005% P20); KD from steady-state fit; both purified.

B1: biotinylated ULBP6-02 (ligand, UniProt Q5VY80 26-218)
chain: RRDDPHSLCYDITVIPKFRPGPRWCAVQGQVDEKTFLHYDCGNKTVTPVSPLGKKLNVTMAWKAQNPVLREVVDILTEQLLDIQLENYTPKEPLTLQARMSCEQKAEGHSSGSWQFSIDGQTFLLFDSEKRMWTTVHPGARKMKEKWENDKDVAMSFHYISMGDCIGWLEDFLMGMDSTLEPSAGAPLAMSSG
modifications: biotin
B1: the binding entry in test [1] was “binds”.

B2: biotinylated ULBP5 (ligand, UniProt Q6H3X3 26-218)
chain: GLADPHSLCYDITVIPKFRPGPRWCAVQGQVDEKTFLHYDCGSKTVTPVSPLGKKLNVTTAWKAQNPVLREVVDILTEQLLDIQLENYIPKEPLTLQARMSCEQKAEGHGSGSWQLSFDGQIFLLFDSENRMWTTVHPGARKMKEKWENDKDMTMSFHYISMGDCTGWLEDFLMGMDSTLEPSAGAPPTMSSG
modifications: biotin
Regarding B2, in test [1], the binding entry was “binds”.

B3: human MICA (MHC class I polypeptide-related sequence A), soluble recombinant (ligand, UniProt Q29983 24-307)
chain: EPHSLRYNLTVLSWDGSVQSGFLTEVHLDGQPFLRCDRQKCRAKPQGQWAEDVLGNKTWDRETRDLTGNGKDLRMTLAHIKDQKEGLHSLQEIRVCEIHEDNSTRSSQHFYYDGELFLSQNLETKEWTMPQSSRAQTLAMNVRNFLKEDAMKTKTHYHAMHADCLQELRRYLKSGVVLRRTVPPMVNVTRSEASEGNITVTCRASGFYPWNITLSWRQDGVSLSHDTQQWGDVLPDGNGTYQTWVATRICQGEEQRFTCYMEHSGNHSTHPVPSGKVLVLQSHW
As for B3, the binding result in test [2] was “binds”.
